Drawing on publication PMC10342119, “ABF1 Positively Regulates Rice Chilling Tolerance via Inducing Trehalose Biosynthesis” (International Journal of Molecular Sciences, 2023), this text covers binding for three molecules.

No constants are given. Whether binding was seen depends on the method and setting. For part of these data: Binding seen in cells or lysates may run through a third protein. Some results given as binding are weak or reduced against the parent protein; the word gives no strength. For part of these data: Tags and fused reporters may be left off the sequences shown.

Test [1] addresses T1, ABF1 fused to the GAL4-binding domain (ABF1-BD) (rice (Oryza sativa L.)) (UniProt Q0JHF1).
T1 sequence: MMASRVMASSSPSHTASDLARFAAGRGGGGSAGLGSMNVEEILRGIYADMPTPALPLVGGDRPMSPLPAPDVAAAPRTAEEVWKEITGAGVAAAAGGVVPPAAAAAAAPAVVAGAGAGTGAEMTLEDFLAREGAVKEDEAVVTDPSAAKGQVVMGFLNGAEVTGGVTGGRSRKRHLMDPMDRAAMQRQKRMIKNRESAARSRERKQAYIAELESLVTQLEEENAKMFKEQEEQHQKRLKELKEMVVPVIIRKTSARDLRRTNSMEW
The test can be described thus: two-hybrid; Matchmaker Gold Yeast Two-Hybrid System, strain Y2H Gold; selection on medium lacking Leu, Trp, His and adenine with 0.04 mg/mL X-alpha-Gal and 100 ng/mL Aureobasidin A.

The target in test [2] is T2, YN-ABF1 (rice (Oryza sativa L.)) (UniProt Q0JHF1).
T2 sequence: T1 sequence
The test can be described thus: split reporter; BiFC with YN-ABF1 and YC-SAPK10 from pDOE in tobacco leaf epidermal cells; confocal microscopy 72 h after infiltration.

For test [3], the target named is T3, SAPK10-FLAG (rice (Oryza sativa L.)) (UniProt Q75H77).
T3 sequence: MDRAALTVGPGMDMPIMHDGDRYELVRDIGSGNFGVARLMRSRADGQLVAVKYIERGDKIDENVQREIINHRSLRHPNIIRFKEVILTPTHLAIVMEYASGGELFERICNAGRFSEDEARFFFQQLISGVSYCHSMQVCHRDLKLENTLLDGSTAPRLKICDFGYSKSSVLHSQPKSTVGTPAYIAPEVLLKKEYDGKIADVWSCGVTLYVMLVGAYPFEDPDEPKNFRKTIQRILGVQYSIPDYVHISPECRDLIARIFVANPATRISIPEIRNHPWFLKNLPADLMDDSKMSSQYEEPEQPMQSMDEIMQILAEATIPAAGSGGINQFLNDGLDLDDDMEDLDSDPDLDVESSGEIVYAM
The test can be described thus: co-IP; SAPK10-FLAG co-expressed with GFP or ABF1-GFP in tobacco leaves; extract incubated with anti-FLAG M2 magnetic beads at 4 °C for 2 h; blots with anti-GFP and anti-FLAG.

B1: SAPK10-AD (enzyme, UniProt Q75H77 1-362)
chain: T3 sequence
For B1, the binding result in test [1] is listed as “binds”.

B2: YC-SAPK10 (enzyme, UniProt Q75H77 1-362)
chain: T3 sequence
Turning to B2, in test [2], the binding entry is “binds”.

B3: GST-ABF1 (natural protein, rice (Oryza sativa L.), UniProt Q0JHF1 1-266, looked up)
chain: T1 sequence
notes: ABF1 (bZIP12), bZIP transcription factor of rice; the CDS was fused into pGEX-4T-1; also called bZIP12; source: E. coli Transetta (DE3), purified (GST-Sefinose Kit); not shown: GST, N-terminal, kept
In the case of B3, the binding entry in test [3] is “binds”.
